Results reported in PubChem BioAssay AID1794845 (National Center for Advancing Translational Sciences (NCATS), 2023).
Fewer than 10 of roughly 6,900 compounds were called active. Calls come from the whole dose curve; as a rule, active = well fitted curve in the direction sought with a large enough effect; inconclusive = small, poorly fitted or top-dose-only effect, or another doubt; inactive = no such curve, though single readings can be large or run the other way. Some of the results follow.

Protein sequences, listed by entry. Tags and fused reporters are not part of them. Lines headed by an entry give the natural chain unless they say otherwise; changes in a name come on top.
UniProt C7C422: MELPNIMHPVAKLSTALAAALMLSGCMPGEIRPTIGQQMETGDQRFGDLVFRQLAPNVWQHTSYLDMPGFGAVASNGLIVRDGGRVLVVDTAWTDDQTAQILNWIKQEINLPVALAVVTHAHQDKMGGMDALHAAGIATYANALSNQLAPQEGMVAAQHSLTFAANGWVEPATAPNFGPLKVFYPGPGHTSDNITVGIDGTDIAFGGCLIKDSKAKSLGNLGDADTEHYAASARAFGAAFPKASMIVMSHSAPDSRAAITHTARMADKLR

Molecular target: Metallo-beta-lactamase type 2 (Klebsiella pneumoniae) (UniProt C7C422)
Assay: qHTS to identify inhibitors of the New Delhi Metallo-beta-lactamase (NDM): primary screen against the NCATS Gemini Collection; note: % of control where 0% means no effect
Settings: NDM-1 enzyme, meropenem hydrolysis, absorbance 300 nm; at 38.4 µM (top of the series) unless noted
In short: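 NDM-1 at 2 nM final in 50 mM HEPES pH 7.0, 1 uM ZnSO4, 0.01% Tween20, preincubated >30 min with compound. Meropenem 50 uM final added; absorbance at 300 nm after 30 min.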

Compound | activity % (negative = inhibition)
O=C(C[C@@H]1C[C@H]2O[C@H](CNC3CCC(F)(F)CC3)[C@@H](O)[C@H]2O1)N1CCC(F)(F)C1 | inactive: -3.07% [at 57.5 µM]
O=C(N1CCC(Cc2nc(-c3ccc(F)cc3)no2)CC1)C1(c2ccccc2)CC1 | inactive: 6.17%
Cc1cc(C(=O)N(C)CC2(C)CCOCC2)nn1C | inactive: 1.6%
CC(C)C(=O)N1CCC2(CC1)OC(=O)N(Cc1ccccc1)C2(C)c1cccnc1 (centres undefined) | inactive: -5.13% [at 57.5 µM]
COCC1CN(C(C)=O)CC12CCN(C(=O)C1CC=CC1)CC2 (centres undefined) | inactive: 11.1%
Cc1nc(C)c(C(=O)N2CCC(N3C(=O)C4(CCCC4)C3c3scnc3C)CC2)s1 (centres undefined) | inactive: 2.71%
Cc1cc(CN2C[C@@H](CO)[C@H](NC(=O)C3CCC3)C2)n(C)n1 | inactive: -0.0151%
O=C(c1ccc(Cl)cc1)N1CCN(Cc2ccccc2-c2cccnc2)CC1 | inactive: 11.2%
O=C(NCC1CCN(Cc2ccccn2)C1)Nc1ccc(F)cc1 (centres undefined) | inactive: 18.4%
N#Cc1ccc(O[C@@H]2COCC[C@H]2NC(=O)Cn2nnnc2N)cc1 | inactive: 1.45%
CN(Cc1cccn1C)C(=O)Nc1ccc(Cl)cc1 | inactive: 1.82% [at 57.5 µM]
Nc1nc(C2CC(O)C2)cc(N2CC(N3CCOCC3)C2)n1 (centres undefined) | inactive: -0.153%
COCc1nn(CC(=O)NC(C)Cc2cc(C)[nH]n2)c(=O)n1-c1ccccc1 (centres undefined) | inactive: 12.3%
CNC(=O)[C@@H]1C[C@@H](n2cc(CNC(=O)Cc3ccc(F)cc3)nn2)CN1 | inactive: 11%
CC(C)n1cc(C(=O)NCc2cccnc2Oc2ccc(F)cc2F)cn1 | inactive: 0.388%
Cc1noc2c(N3CCOCC3)cc(-c3cccs3)nc12 | inactive: 27.7% [at 57.5 µM]
CNC(=O)c1cccn2cncc12 | inactive: 9.62% [at 77.1 µM]
O=C(NC[C@H]1COCc2nc3cc(F)ccc3n21)C1CC1 | inactive: -1.38% [at 77.1 µM]
Cn1nccc1CCC(=O)N1CCN(C(=O)C2CCC2)[C@@H]2CS(=O)(=O)C[C@@H]21 | inactive: -1.48%
O=C(c1ccccc1)N1Cc2[nH]cnc2C[C@H]1c1nc(-c2ccc(Cl)cc2)no1 | inactive: -11.8% [at 57.5 µM]
Cc1cc(C(=O)N2CC(F)(F)C[C@H]2c2nnc(C)o2)no1 | inactive: -4.41%

Compound | activity % (negative = inhibition)
CC(=O)N1CCN(C(=O)c2ccc3oc(-c4ccncc4Cl)nc3c2)CC1 | inactive: 42.2% [at 57.5 µM]
COc1ccccc1C(=O)N1CCC(C(=O)N2CCC(c3nc4ncccc4[nH]3)C2)CC1 (centres undefined) | inactive: 11.3%
CN1CCOC[C@H]2CCN(C(=O)c3cccc4[nH]ccc34)C[C@H]21 | inactive: 3.15%
CC(C)(C)C(=O)NCCNC(=O)c1cccc(-c2ccc(C(F)(F)F)cc2)c1 | inactive: -3.97%
COCc1nnc2n1CCC(NC(=O)CCc1c(C)noc1C)CC2 (centres undefined) | inactive: 29.8%
OCCC#Cc1ccc(CN2CCC(CO)(Cc3ccccc3Cl)CC2)cc1 | inactive: 9.89%
Cn1nccc1CN1CC2(C1)C(=O)Nc1ccccc12 | inactive: -0.928% [at 57.5 µM]
O=C(N1CCCC1)N1CCCC(c2nnc3n2CCNC3)C1 (centres undefined) | inactive: 32.8%
Cc1[nH]nc(CCC(=O)N2CC[C@@H](NC(=O)c3cnccn3)[C@H](O)C2)c1C | inactive: 8.34%
CN1C(=O)CCCCC1C(=O)NCCN1CCCCC1 (centres undefined) | inactive: 5%
O=C(c1ccoc1)N1CCN(c2cc(C3CC3)ncn2)CC(O)C1 (centres undefined) | inactive: 18.2%
CN(C)CCOCC1(C)COc2ccc(C(=O)Nc3ccc4[nH]ccc4c3)cc2N1 (centres undefined) | inactive: 10.4% [at 57.5 µM]
O=C(N[C@H]1CO[C@H]2[C@@H]1OC[C@@H]2Nc1nccc(C2CCCC2)n1)c1ccco1 | inactive: -0.239% [at 57.5 µM]
CCNC(=O)N1CCC(CCOC)(NS(=O)(=O)c2cccc3cccnc23)CC1 | inactive: 3.13%
O=C(c1ccccc1OC1CN(Cc2cccc(C(F)(F)F)c2)C1)N1CCOCC1 | inactive: -5.65%
O=C([C@@H]1C[C@H](F)CN1C(=O)c1cccs1)N1CCOCC1 | inactive: 6.45%
COc1ccc(OCC2CN(c3ccc(OC)cc3)C(=O)c3ccc(C)nc3O2)cc1 (centres undefined) | inactive: 34.9%
CNCC(=O)N1CCC(Cc2cccc(C(N)=O)c2)C1 (centres undefined) | inactive: 11.1%
O=C(NC1CCCc2ccccc21)C1CN(C2CCCCC2)C(=O)N1 (centres undefined) | inactive: 6.07% [at 57.5 µM]
Cc1cn2nc(C(=O)NCC(C)c3ccccc3)cc2c(N2CCSCC2)n1 (centres undefined) | inactive: 5.29%
C[C@@H]1CN(C(=O)CCSCc2ccccc2)CC[C@@]1(O)C1CCOCC1 | inactive: 18.6%

Looked up by structure from the entries so far, 4 records:
Compound | activity % (negative = inhibition)
O=C([C@@H]1C[C@H](F)CN1C(=O)c1cccs1)N1CCOCC1 | inactive: 6.45%
Cn1nccc1CN1CC2(C1)C(=O)Nc1ccccc12 | inactive: -0.928% [at 57.5 µM]
CN(C)CCOCC1(C)COc2ccc(C(=O)Nc3ccc4[nH]ccc4c3)cc2N1 (centres undefined) | inactive: 10.4% [at 57.5 µM]
CCNC(=O)N1CCC(CCOC)(NS(=O)(=O)c2cccc3cccnc23)CC1 | inactive: 3.13%

Next part

Compound | activity % (negative = inhibition)
COC(=O)CNC(=O)c1cc(-c2cnccc2Cl)c2cccn2n1 | inactive: 14.6%
O=[S+]([O-])(Nc1ccccc1)c1ccc2c(c1)OCCN(Cc1cncnc1)C2 | inactive: 37% [at 57.5 µM]
O=C(c1ccc(Cl)cc1)N1CCC(N2CCOC2=O)CC1 | inactive: -0.15%
CCN(CC)C(=O)C[C@@H]1CCNC[C@@H]1Cc1cc(-c2ccccn2)on1 | inactive: 3.85% [at 57.5 µM]
CCCc1nnc(NC(=O)C2CC(=O)N(c3n[nH]c4cc(Br)ccc34)C2)s1 (centres undefined) | inactive: 0.258%
CCN(CCn1cccn1)Cc1ccccc1OCC(O)CN1CCCCC1 (centres undefined) | inactive: -6.03%
COC1CCOC2(CCN(C(=O)Cc3ccccc3)CC2)C1 (centres undefined) | inactive: -13.9%
Cc1ccc(CNC(=O)N2CCCCCNC(=O)[C@@H]3CCC[C@@H]32)cc1 | inactive: 25.1%
CCCCNC(=O)C1CCc2sc(C(=O)N3CCCCC3)cc2C1 (centres undefined) | inactive: -4.39%
Cc1noc(C)c1[S+](=O)([O-])N1CCc2nc(-c3ccccc3)nc(-c3ccc(Cl)cc3)c2C1 | inactive: 6.08%
C=CCNC(=O)c1cnn2c1CN(C(=O)c1cccnc1)CC2 | inactive: -0.594%
Cc1cccc(-c2nocc2CCC(=O)NCc2ccc(F)cc2F)c1 | inactive: -1.01%
Cn1cc(C(=O)N2C[C@@H](C(=O)O)[C@H](c3cccc(F)c3)C2)c(=O)[nH]c1=O | inactive: -1.87%
Cc1noc(-c2cccs2)c1C(=O)NCc1ccccc1Cl | inactive: 9.87%
CC(=O)N1CCN2C(=O)N(Cc3ccc(F)cc3)C[C@H]2C1 | inactive: 2.72% [at 77.1 µM]
COc1ccc(CN(C)C(=O)C2(C)CCOCC2)cc1 | inactive: 6.58% [at 57.5 µM]
COc1ccc(C2Cn3nnc(-c4noc(C5CCC5)n4)c3CO2)cc1 (centres undefined) | inactive: 2.55%
Cc1cc(C)n(Cc2ccc(C(=O)N3CCCC(CO)CCNC(=O)CC3)o2)n1 (centres undefined) | inactive: 39.5%
CCN1CCN(CCCN2CC3(CCN(Cc4ncc[nH]4)CC3)OC2=O)CC1 | inactive: 1.16%
CCCCN1C(=O)NC(c2ccc(OC)cc2)C2=C1COC2=O (centres undefined) | inactive: -0.903%
CC(=O)N1CCN(C(=O)c2ccc3nnc(CC4CC4)n3c2)CC1 | inactive: 6.81% [at 57.5 µM]

Compound | activity % (negative = inhibition)
CS(=O)(=O)N(C1CC1)C1CCOC2(CCN(C(=O)NCc3ccccc3)CC2)C1 (centres undefined) | inactive: -3.97%
COc1ccc(CNC(=O)C[C@@H]2O[C@H](Cn3cc(CN(C)Cc4ccccc4)nn3)[C@@H](O)[C@H]2O)cc1 | inactive: 2.12%
O=C(Cc1ccc(F)cc1)N1CCC2(COc3ccncc3[S+](=O)([O-])N2)C1 (centres undefined) | inactive: 6.5%
CCCS(=O)(=O)N1CC(Oc2ccccc2-c2nc(C3CC3)no2)C1 | inactive: 31.4%
Cn1cc(CN2CCOC[C@H]2c2ncc(C(C)(C)C)[nH]2)c2ccccc21 | inactive: 16.1% [at 57.5 µM]
CCc1cc(N2CCOCC(O)(CN3CCCC3)C2)nc(N2CCCC2)n1 (centres undefined) | inactive: -1.34%
CC(=O)N(C1CC1)C1CCOC2(CCN(C(=O)c3sc(C)nc3C)CC2)C1 (centres undefined) | inactive: -0.752%
COc1ccccc1-c1ccc(C(=O)N2CCC(NC(=O)Nc3ccc(Cl)cc3)CC2)cc1 | inactive: 11.2%
COc1cc(OC)c(C(=O)N2CCC3(CC2)[C@H](O)C[C@@H]3OC)cc1OC | inactive: 9.19%
CCC1(O)CCC12CCN(C(=O)C1CC1)CC2 (centres undefined) | inactive: -0.104%
CC1=C[C@@H](CC#N)[C@H](C(C)C)C[C@H]1CC(=O)N(C)Cc1cccnc1 | inactive: 1.42% [at 57.5 µM]
Cc1cccc(-c2noc(CCC(=O)N3CCC(C)(c4noc(C)n4)CC3)n2)c1 | inactive: 9.05%
CCn1cc(CN2C[C@@H](CO)[C@H](NC(=O)COC)C2)c2ccccc21 | inactive: 1.47%
O=C(COc1ccccc1)N1CCC2(CC1)OCCN(CCc1ccccc1)C2=O | inactive: -4.58% [at 57.5 µM]
C[C@]1(CO)[C@H]2Cc3sc(NC(=O)C4CCC4)nc3[C@@H](CC(=O)N3CCCCC3)[C@]2(C)CC[C@H]1O | inactive: 12.8%
CN(CC[C@H]1CN(C(=O)C(C)(C)C)CC[C@H]1CC(=O)O)c1ccccc1 | inactive: 8.59% [at 57.5 µM]
Cn1cc([C@@H](NC(=O)c2ccc3c(c2)CCCC3)C2CC(O)C2)cn1 (some centres undefined) | inactive: 7.25%
COc1ccccc1CNC(=O)[C@@H]1OCCN(C2CC2)[C@H]1c1ccccc1 | inactive: 0.117%
CCN1CCC(N2CC(Oc3cccc(C(=O)NCC4CC4)c3)C2)CC1 | inactive: 2.31%
COc1cc(-c2nccc3c(=O)cc(N4CCOCC4)oc23)ccn1 | inactive: 80.3% [at 57.5 µM]
Cc1oc(C(O)c2ccccc2)nc1C(=O)Nc1ccc(C(=O)Nc2ccccc2)cc1 (centres undefined) | inactive: 2.77% [at 57.5 µM]
